# Experimental data: PMC5581180
# Construct, isoform or probe ends are uncertain for at least one entry.
# Test system: NeqSSB-TaqS fusion DNA polymerase
# Assay: EMSA
# Conditions: mixed with 2.5 pmol 100 bp dsDNA, 10 pmol (dT)76, partial binding at 3.3 pmol protein, full at 26.4 pmol, prefers ssDNA; EMSA as in Olszewski et al. 2015 (buffer, salt, pH and temperature not given here); 10 pmol (dT)76 and/or 2.5 pmol 100 bp PCR product; 2% agarose gel, ethidium bromide; recombinant protein; protein details: C-terminal His tag; label: 5' fluorescein; single-stranded DNA
sequence,measurement,value
TTTTTTTTTTTTTTTTTTTTTTTTTTTTTTTTTTTTTTTTTTTTTTTTTTTTTTTTTTTTTTTTTTTTTTTTTTTT [(dT)76],binding result,binds
